Experimental data as given in paper PMC7862700.
Only a part is listed here, and it is no random draw. At the low end of the ranking, values are background and their order means little.

Amino acid sequences for entries named in this document (tags omitted). A change or cut given only in a name is not applied to a line headed by its entry.
UniProt Q9Y603: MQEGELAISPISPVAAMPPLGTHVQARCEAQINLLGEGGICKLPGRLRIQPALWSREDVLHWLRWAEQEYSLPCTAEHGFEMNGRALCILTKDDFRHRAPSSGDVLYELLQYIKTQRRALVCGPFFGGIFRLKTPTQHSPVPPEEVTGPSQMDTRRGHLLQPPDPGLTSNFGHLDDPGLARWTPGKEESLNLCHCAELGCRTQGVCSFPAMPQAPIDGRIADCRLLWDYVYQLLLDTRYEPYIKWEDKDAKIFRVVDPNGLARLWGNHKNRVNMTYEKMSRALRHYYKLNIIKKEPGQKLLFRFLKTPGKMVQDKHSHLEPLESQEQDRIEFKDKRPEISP

Each sequence was assayed against ETV7 (UniProt Q9Y603) (assay: DAPPL (digital affinity profiling via proximity ligation, sequencing)). Conditions: 10 mM Tris-HCl pH 7.5, 50 mM NaCl, 1 mM DTT, 4% glycerol, room temperature, 30 min; GST-TFs on glutathione beads, 16-mer random dsDNA library, 0.1% …; high values mean tight binding; double strand, one strand shown; scale: fold enrichment (6-mer frequency, TF over GST control).

Question: GCATTC was tested. Which binding signal did it give?
Answer: 0.976

Question: For AATAAG, which binding signal is on record?
Answer: 1.19

Question: Which binding signal does the source give for TACTAC here?
Answer: 1.47

Question: For CGGCTT, which binding signal is on record?
Answer: 0.977

Question: CTTTTC was tested. Which binding signal did it give?
Answer: 1.49

Question: With ATGGAC as the sequence, how does the binding signal read?
Answer: 1.02

Question: Which binding signal does the source give for ACCTAC here?
Answer: 1.09

Question: For CGGATA, which binding signal is on record?
Answer: 1.09

Question: For TAACAC, which binding signal is on record?
Answer: 1.21

Question: How did the binding signal turn out when TTACTG was run?
Answer: 1.14

Question: Which binding signal does the source give for GCCTTC here?
Answer: 1.47

Question: For AGCCTC, which binding signal is on record?
Answer: 1.31

Question: For CGAAAG, which binding signal is on record?
Answer: 1.19

Question: With GTTTTC as the sequence, how does the binding signal read?
Answer: 1.36

Question: Which binding signal does the source give for GTCTTA here?
Answer: 1.21

Question: How did the binding signal turn out when AATAGC was run?
Answer: 1.19

Question: Which binding signal does the source give for TCGCTC here?
Answer: 1.02

Question: CTTCTG was tested. Which binding signal did it give?
Answer: 1.2

Question: For CGGCTC, which binding signal is on record?
Answer: 1.25

Question: For CCCGGA, which binding signal is on record?
Answer: 2.48

Question: With CTTATG as the sequence, how does the binding signal read?
Answer: 1.47

Question: For GAAATG, which binding signal is on record?
Answer: 1.6

Question: Which binding signal does the source give for CTGGGT here?
Answer: 1.1

Question: ACCCGC was tested. Which binding signal did it give?
Answer: 1.18

Question: How did the binding signal turn out when CGACTC was run?
Answer: 1.29

Question: TGATCT was tested. Which binding signal did it give?
Answer: 1.11

Question: With AGTATC as the sequence, how does the binding signal read?
Answer: 1.13

Question: Which binding signal does the source give for TATGTA here?
Answer: 1.35

Question: For TGGTGT, which binding signal is on record?
Answer: 1.08

Question: Which binding signal does the source give for CTATAC here?
Answer: 1.19

Question: Which binding signal does the source give for AATAGA here?
Answer: 1.17

Question: CTGCCG was tested. Which binding signal did it give?
Answer: 1.39

Question: How did the binding signal turn out when TCCTTG was run?
Answer: 1.22

Question: With AGACCT as the sequence, how does the binding signal read?
Answer: 0.843

Question: Which binding signal does the source give for TCCCAC here?
Answer: 1.41

Question: With ACTACT as the sequence, how does the binding signal read?
Answer: 1.35

Question: ATTAAT was tested. Which binding signal did it give?
Answer: 1.21

Question: For ATCTAA, which binding signal is on record?
Answer: 1.22
